The list shows a part of the results.
Key:
Test in all cases: glycan array binding signal (z-score within array); higher = stronger binding
Details in all cases: glycan notation: IUPAC condensed, linker removed
[1] = biological target: Man(a1-3)[Man(a1-6)]Man(a1-6)[Man(a1-3)]Man
Method in brief: (§1)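 The binding signal is a Z-score computed within each array. Data were drawn from 3228 arrays in the Consortium for Functional Glycomics database, restricted to those with a known protein sequence. Scores were averaged over arrays of the same protein sequence at different concentrations or buffers, and over linkers, and negative values can be taken as non-binding.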

[2] = biological target: Man(a1-3)[Man(a1-6)]Man(a1-6)[Man(a1-3)]Man(b1-4)GlcNAc(b1-4)GlcNAc
Method in brief: as §1

[3] = biological target: Man(a1-3)[Man(a1-6)]Man(b1-4)GlcNAc(b1-4)GlcNAc
Method in brief: as §1

[4] = biological target: Man(a1-3)[Man(a1-6)]Man(b1-4)GlcNAc(b1-4)[Fuc(a1-6)]GlcNAc
Method in brief: as §1

Man(a1-6)Man = biological target: Man(a1-6)Man
Method in brief: as §1

Man(b1-4)GlcNAc = biological target: Man(b1-4)GlcNAc
Method in brief: as §1

MurNAc(b1-4)GlcNAc = biological target: MurNAc(b1-4)GlcNAc
Method in brief: as §1

Neu5Ac(a2-3)Gal = biological target: Neu5Ac(a2-3)Gal
Method in brief: as §1

[5] = biological target: Neu5Ac(a2-3)Gal(b1-3)GalNAc
Method in brief: as §1

[6] = biological target: Neu5Ac(a2-3)Gal(b1-3)GalNAc(b1-3)Gal(a1-4)Gal(b1-4)Glc
Method in brief: as §1

[7] = biological target: Neu5Ac(a2-3)Gal(b1-3)GalNAc(b1-4)Gal(b1-4)Glc
Method in brief: as §1

[8] = biological target: Neu5Ac(a2-3)Gal(b1-3)GalNAc(b1-4)[Neu5Ac(a2-3)]Gal(b1-4)Glc
Method in brief: as §1

[9] = biological target: Neu5Ac(a2-3)Gal(b1-3)GalNAc(b1-4)[Neu5Ac(a2-8)Neu5Ac(a2-3)]Gal(b1-4)Glc
Method in brief: as §1

[10] = biological target: Neu5Ac(a2-3)Gal(b1-3)GalNAc6S
Method in brief: as §1

[11] = biological target: Neu5Ac(a2-3)Gal(b1-3)GlcNAc
Method in brief: as §1

[12] = biological target: Neu5Ac(a2-3)Gal(b1-3)GlcNAc(b1-2)Man
Method in brief: as §1

[13] = biological target: Neu5Ac(a2-3)Gal(b1-3)GlcNAc(b1-2)Man(a1-3)[GlcNAc(b1-4)][Neu5Ac(a2-3)Gal(b1-3)GlcNAc(b1-2)Man(a1-6)]Man(b1-4)GlcNAc(b1-4)GlcNAc
Method in brief: as §1

[14] = biological target: Neu5Ac(a2-3)Gal(b1-3)GlcNAc(b1-2)Man(a1-3)[Neu5Ac(a2-3)Gal(b1-3)GlcNAc(b1-2)Man(a1-6)]Man(b1-4)GlcNAc(b1-4)GlcNAc
Method in brief: as §1

[15] = biological target: Neu5Ac(a2-3)Gal(b1-3)GlcNAc(b1-2)[Neu5Ac(a2-3)Gal(b1-3)GlcNAc(b1-4)]Man(a1-6)[Neu5Ac(a2-3)Gal(b1-3)GlcNAc(b1-2)Man(a1-3)]Man(b1-4)GlcNAc(b1-4)GlcNAc
Method in brief: as §1

[16] = biological target: Neu5Ac(a2-3)Gal(b1-3)GlcNAc(b1-3)Gal(b1-3)GlcNAc
Method in brief: as §1

[17] = biological target: Neu5Ac(a2-3)Gal(b1-3)GlcNAc(b1-3)Gal(b1-4)GlcNAc
Method in brief: as §1

[18] = biological target: Neu5Ac(a2-3)Gal(b1-3)GlcNAc(b1-3)GalNAc
Method in brief: as §1

[19] = biological target: Neu5Ac(a2-3)Gal(b1-3)GlcNAc(b1-6)GalNAc
Method in brief: as §1

[20] = biological target: Neu5Ac(a2-3)Gal(b1-3)GlcNAc6S
Method in brief: as §1

[21] = biological target: Neu5Ac(a2-3)Gal(b1-3)[Fuc(a1-4)]GlcNAc
Method in brief: as §1

[22] = biological target: Neu5Ac(a2-3)Gal(b1-3)[Fuc(a1-4)]GlcNAc(b1-3)Gal(b1-3)[Fuc(a1-4)]GlcNAc
Method in brief: as §1

[23] = biological target: Neu5Ac(a2-3)Gal(b1-3)[Fuc(a1-4)]GlcNAc(b1-3)Gal(b1-4)[Fuc(a1-3)]GlcNAc
Method in brief: as §1

[24] = biological target: Neu5Ac(a2-3)Gal(b1-3)[GlcNAc(b1-6)]GalNAc
Method in brief: as §1

[25] = biological target: Neu5Ac(a2-3)Gal(b1-3)[Neu5Ac(a2-6)]GalNAc
Method in brief: as §1

[26] = biological target: Neu5Ac(a2-3)Gal(b1-3)[Neu5Ac(a2-6)]GlcNAc(b1-3)[Fuc(a1-3)[Gal(b1-4)]GlcNAc(b1-6)]Gal(b1-4)Glc
Method in brief: as §1

[27] = biological target: Neu5Ac(a2-3)Gal(b1-3)]Neu5Ac(a2-3)Gal(b1-4)]GlcNAc
Method in brief: as §1

Neu5Ac(a2-3)Gal(b1-4)Glc = biological target: Neu5Ac(a2-3)Gal(b1-4)Glc
Method in brief: as §1

[28] = biological target: Neu5Ac(a2-3)Gal(b1-4)GlcNAc
Method in brief: as §1

[29] = biological target: Neu5Ac(a2-3)Gal(b1-4)GlcNAc(b1-2)Man
Method in brief: as §1

[30] = biological target: Neu5Ac(a2-3)Gal(b1-4)GlcNAc(b1-2)Man(a1-3)[GlcNAc(b1-4)][Neu5Ac(a2-3)Gal(b1-4)GlcNAc(b1-2)Man(a1-6)]Man(b1-4)GlcNAc(b1-4)GlcNAc
Method in brief: as §1

[31] = biological target: Neu5Ac(a2-3)Gal(b1-4)GlcNAc(b1-2)Man(a1-3)[Neu5Ac(a2-3)Gal(b1-4)GlcNAc(b1-2)Man(a1-6)]Man(b1-4)GlcNAc(b1-4)GlcNAc
Method in brief: as §1

[32] = biological target: Neu5Ac(a2-3)Gal(b1-4)GlcNAc(b1-2)Man(a1-3)[Neu5Ac(a2-3)Gal(b1-4)GlcNAc(b1-2)Man(a1-6)]Man(b1-4)GlcNAc(b1-4)[Fuc(a1-6)]GlcNAc
Method in brief: as §1

[33] = biological target: Neu5Ac(a2-3)Gal(b1-4)GlcNAc(b1-2)Man(a1-3)[Neu5Ac(a2-6)Gal(b1-4)GlcNAc(b1-2)Man(a1-6)]Man(b1-4)GlcNAc(b1-4)GlcNAc
Method in brief: as §1

B1: Nc3LysM-2 (protein)
chain: AHVLQARQSVSCDFATAANTGDTCASFAAAWGITEAAFAKLNPGVSCPGNLIAGSEYCVIGTVSTGAPTTTKAATTSTTPPTTTTTTKATTLSTSTTSVSPTGPSPQMPSITSTCNKFYQVQSGDGCWSIEQAQGVSASDFMAWNKAVDAQCDNLWLGYYVCVGVKGGSSPPPTTTTKPASSSAPTPQMPNTVSNCKKFHKVVSGDGCWAIEQAAGISASDFAKWNPYVDAACDNLWLGYYVCIGV
glycan array binding signal (z-score) [1]: -0.186
glycan array binding signal (z-score) [2]: -0.22
glycan array binding signal (z-score) [3]: -1.25
glycan array binding signal (z-score) [4]: 0.411
glycan array binding signal (z-score) (Man(a1-6)Man): 0.852
glycan array binding signal (z-score) (Man(b1-4)GlcNAc): 1.42
glycan array binding signal (z-score) (MurNAc(b1-4)GlcNAc): -1.52
glycan array binding signal (z-score) (Neu5Ac(a2-3)Gal): -0.674
glycan array binding signal (z-score) [5]: 0.707
glycan array binding signal (z-score) [6]: 0.381
glycan array binding signal (z-score) [7]: -0.312
glycan array binding signal (z-score) [8]: 0.161
glycan array binding signal (z-score) [9]: -0.18
glycan array binding signal (z-score) [10]: 0.208
glycan array binding signal (z-score) [11]: 0.767
glycan array binding signal (z-score) [12]: 0.324
glycan array binding signal (z-score) [13]: -1.28
glycan array binding signal (z-score) [14]: 1.83
glycan array binding signal (z-score) [15]: 1.06
glycan array binding signal (z-score) [16]: -0.311
glycan array binding signal (z-score) [17]: -0.494
glycan array binding signal (z-score) [18]: 0.211
glycan array binding signal (z-score) [19]: -0.33
glycan array binding signal (z-score) [20]: 1.62
glycan array binding signal (z-score) [21]: 0.142
glycan array binding signal (z-score) [22]: 1.39
glycan array binding signal (z-score) [23]: 0.418
glycan array binding signal (z-score) [24]: -0.46
glycan array binding signal (z-score) [25]: -0.397
glycan array binding signal (z-score) [26]: -0.063
glycan array binding signal (z-score) [27]: -0.285
glycan array binding signal (z-score) (Neu5Ac(a2-3)Gal(b1-4)Glc): -0.245
glycan array binding signal (z-score) [28]: -0.62
glycan array binding signal (z-score) [29]: 0.06
glycan array binding signal (z-score) [30]: 0.63
glycan array binding signal (z-score) [31]: 1.03
glycan array binding signal (z-score) [32]: -0.943
glycan array binding signal (z-score) [33]: -0.348

— the supplement of paper PMC8728848
